# The list shows a part of the results.
# B1: Endo180d1-D4 (Homo sapiens), Q9UBG0 (protein)
# chain: MGPGRPAPAPWPRHLLRCVLLLGCLHLGRPGAPGDAALPEPNVFLIFSHGLQGCLEAQGGQVRVTPACNTSLPAQRWKWVSRNRLFNLGTMQCLGTGWPGTNTTASLGMYECDREALNLRWHCRTLGDQLSLLLGARTSNISKPGTLERGDQTRSGQWRIYGSEEDLCALPYHEVYTIQGNSHGKPCTIPFKYDNQWFHGCTSTGREDGHLWCATTQDYGKDERWGFCPIKSNDCETFWDKDQLTDSCYQFNFQSTLSWREAWASCEQQGADLLSITEIHEQTYINGLLTGYSSTLWIGLNDLDTSGGWQWSDNSPLKYLNWESDQPDNPSEENCGVIRTESSGGWQNRDCSIALPYVCKKKPNATAEPTPPDRWANVKVECEPSWQPFQGHCYRLQAEKRSWQESKKACLRGGGDLVSIHSMAELEFITKQIKQEVEELWIGLNDLKLQMNFEWSDGSLVSFTHWHPFEPNNFRDSLEDCVTIWGPEGRWNDSPCNQSLPSICKKAGQLSQGAAEEDHGCRKGWTWHSPSCYWLGEDQVTYSEARRLCTDHGSQLVTITNRFEQAFVSSLIYNWEGEYFWTALQDLNSTGSFFWLSGDEVMYTHWNRDQPGYSRGGCVALATGSAMGLWEVKNCTSFRARYICRQSLGTPVTPELPGPDPTPSLTGSCPQGWASDTKLRYCYKVFSSERLQDKKSWVQAQGACQELGAQLLSLASYEEEHFVANMLNKIFGESEPEIHEQHWFWIGLNRRDPRGGQSWRWSDGVGFSYHNFDRSRHDDDDIRGCAVLDLASLQWVAMQCDTQLDWICKIPRGTDVREPDDSPQGRREWLRFQEAEYKFFEHHSTWAQAQRICTWFQAELTSVHSQAELDFLSHNLQKFSRAQEQHWWIGLHTSESDGRFRWTDGSIINFISWAPGKPRPVGKDKKCVYMTASREDWGDQRCLTALPYICKRSNVTKETQPPDLPTTALGGCPSDWIQFLNKCFQVQGQEPQSRVKWSEAQFSCEQQEAQLVTITNPLEQAFITASLPNVTFDLWIGLHASQRDFQWVEQEPLMYANWAPGEPSGPSPAPSGNKPTSCAVVLHSPSAHFTGRWDDRSCTEETHGFICQKGTDPSLSPSPAALPPAPGTELSYLNGTFRLLQKPLRWHDALLLCESHNASLAYVPDPYTQAFLTQAARGLRTPLWIGLAGEEGSRRYSWVSEEPLNYVGWQDGEPQQPGGCTYVDVDGAWRTTSCDTKLQGAVCGVSSGPPPPRRISYHGSCPQGLADSAWIPFREHCYSFHMELLLGHKEARQRCQRAGGAVLSILDEMENVFVWEHLQSYEGQSRGAWLGMNFNPKGGTLVWQDNTAVNYSNWGPPGLGPSMLSHNSCYWIQSNSGLWRPGACTNITMGVVCKLPRAEQSSFSPSALPENPAALVVVLMAVLLLLALLTAALILYRRRQSIERGAFEGARYSRSSSSPTEATEKNILVSDMEMNEQQE
# Key:
# Assay in all cases: glycan array binding signal (z-score within array); higher = stronger binding
# Details in all cases: glycan notation: IUPAC condensed, linker removed
# [1] = target: Neu5Ac(a2-6)Gal(b1-4)GlcNAc(b1-2)Man
# Method in brief: (§1)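 From the Consortium for Functional Glycomics database, 3228 arrays were curated, keeping only those whose protein sequence was available. Binding is given as a within-array Z-score averaged across arrays sharing a protein sequence and across linkers. Negative Z-scores can be read as non-binding.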
# [2] = target: Neu5Ac(a2-6)Gal(b1-4)GlcNAc(b1-2)Man(a1-3)Man(b1-4)GlcNAc(b1-4)GlcNAc
# Method in brief: as §1
# [3] = target: Neu5Ac(a2-6)Gal(b1-4)GlcNAc(b1-2)Man(a1-3)[Gal(b1-4)GlcNAc(b1-2)Man(a1-6)]Man(b1-4)GlcNAc(b1-4)GlcNAc
# Method in brief: as §1
# [4] = target: Neu5Ac(a2-6)Gal(b1-4)GlcNAc(b1-2)Man(a1-3)[GlcNAc(b1-2)Man(a1-6)]Man(b1-4)GlcNAc(b1-4)GlcNAc
# Method in brief: as §1
# [5] = target: Neu5Ac(a2-6)Gal(b1-4)GlcNAc(b1-2)Man(a1-3)[GlcNAc(b1-4)][Neu5Ac(a2-6)Gal(b1-4)GlcNAc(b1-2)Man(a1-6)]Man(b1-4)GlcNAc(b1-4)GlcNAc
# Method in brief: as §1
# [6] = target: Neu5Ac(a2-6)Gal(b1-4)GlcNAc(b1-2)Man(a1-3)[Man(a1-6)]Man(b1-4)GlcNAc(b1-4)GlcNAc
# Method in brief: as §1
# [7] = target: Neu5Ac(a2-6)Gal(b1-4)GlcNAc(b1-2)Man(a1-3)[Neu5Ac(a2-3)Gal(b1-4)GlcNAc(b1-2)Man(a1-6)]Man(b1-4)GlcNAc(b1-4)GlcNAc
# Method in brief: as §1
# [8] = target: Neu5Ac(a2-6)Gal(b1-4)GlcNAc(b1-2)Man(a1-3)[Neu5Ac(a2-6)Gal(b1-4)GlcNAc(b1-2)Man(a1-6)]Man(b1-4)GlcNAc(b1-4)GlcNAc
# Method in brief: as §1
# [9] = target: Neu5Ac(a2-6)Gal(b1-4)GlcNAc(b1-2)Man(a1-3)[Neu5Ac(a2-6)Gal(b1-4)GlcNAc(b1-2)Man(a1-6)]Man(b1-4)GlcNAc(b1-4)[Fuc(a1-6)]GlcNAc
# Method in brief: as §1
# [10] = target: Neu5Ac(a2-6)Gal(b1-4)GlcNAc(b1-2)Man(a1-6)Man(b1-4)GlcNAc(b1-4)GlcNAc
# Method in brief: as §1
# [11] = target: Neu5Ac(a2-6)Gal(b1-4)GlcNAc(b1-2)Man(a1-6)[Gal(b1-4)GlcNAc(b1-2)Man(a1-3)]Man(b1-4)GlcNAc(b1-4)GlcNAc
# Method in brief: as §1
# [12] = target: Neu5Ac(a2-6)Gal(b1-4)GlcNAc(b1-2)Man(a1-6)[GlcNAc(b1-2)Man(a1-3)]Man(b1-4)GlcNAc(b1-4)GlcNAc
# Method in brief: as §1
# [13] = target: Neu5Ac(a2-6)Gal(b1-4)GlcNAc(b1-2)Man(a1-6)[Man(a1-3)]Man(b1-4)GlcNAc(b1-4)GlcNAc
# Method in brief: as §1
# [14] = target: Neu5Ac(a2-6)Gal(b1-4)GlcNAc(b1-2)[Neu5Ac(a2-6)Gal(b1-4)GlcNAc(b1-4)]Man(a1-3)[GlcNAc(b1-4)][Neu5Ac(a2-6)Gal(b1-4)GlcNAc(b1-2)[Neu5Ac(a2-6)Gal(b1-4)GlcNAc(b1-6)]Man(a1-6)]Man(b1-4)GlcNAc(b1-4)GlcNAc
# Method in brief: as §1
# [15] = target: Neu5Ac(a2-6)Gal(b1-4)GlcNAc(b1-2)[Neu5Ac(a2-6)Gal(b1-4)GlcNAc(b1-4)]Man(a1-3)[GlcNAc(b1-4)][Neu5Ac(a2-6)Gal(b1-4)GlcNAc(b1-4)Man(a1-6)]Man(b1-4)GlcNAc(b1-4)GlcNAc
# Method in brief: as §1
# [16] = target: Neu5Ac(a2-6)Gal(b1-4)GlcNAc(b1-2)[Neu5Ac(a2-6)Gal(b1-4)GlcNAc(b1-6)]Man(a1-6)[Neu5Ac(a2-6)Gal(b1-4)GlcNAc(b1-2)Man(a1-3)][GlcNAc(b1-4)]Man(b1-4)GlcNAc(b1-4)GlcNAc
# Method in brief: as §1
# [17] = target: Neu5Ac(a2-6)Gal(b1-4)GlcNAc(b1-3)Gal(b1-3)GlcNAc
# Method in brief: as §1
# [18] = target: Neu5Ac(a2-6)Gal(b1-4)GlcNAc(b1-3)Gal(b1-4)GlcNAc
# Method in brief: as §1
# [19] = target: Neu5Ac(a2-6)Gal(b1-4)GlcNAc(b1-3)Gal(b1-4)GlcNAc(b1-2)Man(a1-3)[Neu5Ac(a2-6)Gal(b1-4)GlcNAc(b1-3)Gal(b1-4)GlcNAc(b1-2)Man(a1-6)]GalNAc
# Method in brief: as §1
# [20] = target: Neu5Ac(a2-6)Gal(b1-4)GlcNAc(b1-3)Gal(b1-4)GlcNAc(b1-3)Gal(b1-4)GlcNAc
# Method in brief: as §1
# [21] = target: Neu5Ac(a2-6)Gal(b1-4)GlcNAc(b1-3)Gal(b1-4)GlcNAc(b1-3)Gal(b1-4)GlcNAc(b1-2)Man(a1-3)[Neu5Ac(a2-6)Gal(b1-4)GlcNAc(b1-3)Gal(b1-4)GlcNAc(b1-3)Gal(b1-4)GlcNAc(b1-2)Man(a1-6)]GalNAc
# Method in brief: as §1
# [22] = target: Neu5Ac(a2-6)Gal(b1-4)GlcNAc(b1-3)Gal(b1-4)GlcNAc(b1-3)GalNAc
# Method in brief: as §1
# [23] = target: Neu5Ac(a2-6)Gal(b1-4)GlcNAc(b1-3)Gal(b1-4)GlcNAc(b1-3)[Neu5Ac(a2-6)Gal(b1-4)GlcNAc(b1-3)Gal(b1-4)GlcNAc(b1-6)]GalNAc
# Method in brief: as §1
binder,measurement,setting,value
B1,glycan array binding signal (z-score),[1],0.442
same,glycan array binding signal (z-score),[2],0.283
same,glycan array binding signal (z-score),[3],-0.686
same,glycan array binding signal (z-score),[4],3.38
same,glycan array binding signal (z-score),[5],-1.51
same,glycan array binding signal (z-score),[6],0.154
same,glycan array binding signal (z-score),[7],0.363
same,glycan array binding signal (z-score),[8],-0.074
same,glycan array binding signal (z-score),[9],0.843
same,glycan array binding signal (z-score),[10],0.717
same,glycan array binding signal (z-score),[11],-1.57
same,glycan array binding signal (z-score),[12],-0.485
same,glycan array binding signal (z-score),[13],0.214
same,glycan array binding signal (z-score),[14],-0.277
same,glycan array binding signal (z-score),[15],-0.856
same,glycan array binding signal (z-score),[16],2.92
same,glycan array binding signal (z-score),[17],-0.166
same,glycan array binding signal (z-score),[18],-0.535
same,glycan array binding signal (z-score),[19],0.118
same,glycan array binding signal (z-score),[20],0.715
same,glycan array binding signal (z-score),[21],1.12
same,glycan array binding signal (z-score),[22],-1.45
same,glycan array binding signal (z-score),[23],-0.406

# A portion from further up, as a working copy:
binder,measurement,setting,value
B1,glycan array binding signal (z-score),[17],-0.166
same,glycan array binding signal (z-score),[18],-0.535
